For series [1], the system named is noise-induced injury of the cochlea. As to the kind of experiment: Auditory brainstem response (ABR) hearing threshold shift after noise exposure, montelukast post-treatment. It counts as in vivo, BALB/c mouse. As to conditions: ABR at 14 day of noise exposure; montelukast administrated for 4 days; compared with only-noise exposure group. On the procedure: Noise stimuli were applied based on 0 day, montelukast was treated for 3 days, mice were sacrificed at 1 day, 3 day, 7 day, and 14 day, and then the changes thereof were observed. Immunohistochemistry, PCR, and a western blot test for examining changes in receptor expression levels by using tissues obtained at a noise stimulation test day, 1 day, 3 day, and 7 day were performed, respectively. Changes in permanent hearing threshold immediately before scarifying the mouse were verified by an auditory brainstem response test at 14 day and thereafter, a surface preparation method and a scanning electron microscopy test for evaluating the tissue damage were performed. […]
Whether the montelukast prevented noise-induced injury of the cochlea was evaluated (see FIGS. 5A and 5B). […] ABR measurement was performed by the existing method, and hearing was evaluated by a Biosig 32 ABR system (Tucker-Davis Technologies, Gainesville, Fla.). […] A brainstem response was percutaneously recorded by using sterile electrode needle. A reference electrode was inserted behind the ear to be measured and active electrodes were inserted behind the opposite ear and the skin of the head. […] At each frequency, averages of 1,000 stimuli were collected and respective results were recorded and stored. […] The ABR for 16 and 32 kHz stimuli was recorded before exposure of the noise and at 1 day and 14 day for exposure of the noise. […]

For series [2] the test system is unchanged. Description: Hearing threshold shift with co-administration of montelukast and Ginkgo biloba extract (ABR as in Example 3). It counts as in vivo, mouse. Particulars: montelukast 10 mg/kg, EgB 32.4 mg/kg orally; compared with only-noise treatment (FIG. 11).
For series [3] the following is noted: 10 mg/kg.

Regarding `CC(C)(O)c1ccccc1CCC(SCC1(CC(=O)[O-])CC1)c1cccc(/C=C/c2ccc3ccc(Cl)cc3n2)c1.[Na+]` (stereo not drawn) [montelukast], in series [1], the “reduction of permanent threshold shift (PTS)” value was “approximately 50%”. Besides, the “hearing protection effect (hearing threshold shift)” value in series [2] is given as “hearing protection effect was shown”. In addition, the “toxicity of concentration used” value in series [3] is recorded as “non-toxic level”.

For the origin of these results see patent US10441616B2, “Pharmaceutical composition for treating or preventing sensorineural hearing loss, containing cysteinyl leukotriene receptor antagonist and ginkgo leaf extract” (AJOU UNIVERSITY INDUSTRY-ACADEMIC COOPERATION FOUNDATION, priority 2014, dated 2019).
